# Measurements taken from the supplement of paper PMC8728848.
# The other results are listed elsewhere or left out.
# B1: AT5G17240(42) (Arabidopsis thaliana), Q6NQJ8 (protein)
# chain: MDLEHQTMETFLRWAAEIGISDSIDSSRFRDSCLGHSLSVSDFPDAGGRGLGAARELKKGELVLKVPRKALMTTESIIAKDLKLSDAVNLHNSLSSTQILSVCLLYEMSKEKKSFWYPYLFHIPRDYDLLATFGNFEKQALQVEDAVWATEKATAKCQSEWKEAGSLMKELELKPKFRSFQAWLWASATISSRTLHVPWDSAGCLCPVGDLFNYDAPGDYSNTPQGPESANNVEEAGLVVETHSERLTDGGFEEDVNAYCLYARRNYQLGEQVLLCYGTYTNLELLEHYGFMLEENSNDKVFIPLETSLFSLASSWPKDSLYIHQDGKLSFALISTLRLWLIPQSQRDKSVMRLVYAGSQISVKNEILVMKWMSEKCGSVLRDLPTSVTEDTVLLHNIDKLQDPELRLEQKETEAFGSEVRAFLDANCLWDVTVLSGKPIEFSRKTSRMLSKWRWSVQWRLSYKRTLADCISYCNEKMNNLLGTQDRLRDL
# Legend:
# Test in all cases: glycan array binding signal (z-score within array); higher = stronger binding
# Settings in all cases: glycan notation: IUPAC condensed, linker removed
# [1] = target: Fuc(a1-2)Gal(b1-4)GlcNAc(b1-3)Gal(b1-4)GlcNAc(b1-2)Man(a1-3)[Fuc(a1-2)Gal(b1-4)GlcNAc(b1-3)Gal(b1-4)GlcNAc(b1-2)Man(a1-6)]Man(b1-4)GlcNAc(b1-4)GlcNAc
# Method in brief: (§1)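 Glycan array data were curated from 3228 arrays in the Consortium for Functional Glycomics database and kept only where the protein sequence was available. Glycan names were converted to IUPAC-condensed notation, and columns mapping to the same glycan were averaged. The binding signal is a within-array Z-score, averaged across arrays of the same protein sequence at different concentrations or buffers and across linkers. Negative Z-scores can be read as non-binding.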
# [2] = target: Fuc(a1-2)Gal(b1-4)GlcNAc(b1-3)Gal(b1-4)GlcNAc(b1-3)Gal(b1-4)GlcNAc
# Method in brief: as §1
# [3] = target: Fuc(a1-2)Gal(b1-4)GlcNAc(b1-3)GalNAc
# Method in brief: as §1
# [4] = target: Fuc(a1-2)Gal(b1-4)GlcNAc(b1-3)[Fuc(a1-2)Gal(b1-4)GlcNAc(b1-6)]GalNAc
# Method in brief: as §1
# [5] = target: Fuc(a1-2)Gal(b1-4)GlcNAc(b1-3)[Fuc(a1-3)[Gal(b1-4)]GlcNAc(b1-6)]Gal(b1-4)Glc
# Method in brief: as §1
# [6] = target: Fuc(a1-2)Gal(b1-4)GlcNAc(b1-6)GalNAc
# Method in brief: as §1
# [7] = target: Fuc(a1-2)Gal(b1-4)GlcNAc6S
# Method in brief: as §1
# [8] = target: Fuc(a1-2)Gal(b1-4)[Fuc(a1-3)]GlcNAc
# Method in brief: as §1
# [9] = target: Fuc(a1-2)Gal(b1-4)[Fuc(a1-3)]GlcNAc(b1-2)Man(a1-3)[Fuc(a1-2)Gal(b1-4)[Fuc(a1-3)]GlcNAc(b1-2)Man(a1-6)]Man(b1-4)GlcNAc(b1-4)[Fuc(a1-6)]GlcNAc
# Method in brief: as §1
# [10] = target: Fuc(a1-2)Gal(b1-4)[Fuc(a1-3)]GlcNAc(b1-2)[Fuc(a1-2)Gal(b1-4)[Fuc(a1-3)]GlcNAc(b1-4)]Man(a1-3)[Fuc(a1-2)Gal(b1-4)[Fuc(a1-3)]GlcNAc(b1-2)Man(a1-6)]Man(b1-4)GlcNAc(b1-4)GlcNAc
# Method in brief: as §1
# [11] = target: Fuc(a1-2)Gal(b1-4)[Fuc(a1-3)]GlcNAc(b1-3)Gal(b1-4)[Fuc(a1-3)]GlcNAc
# Method in brief: as §1
# [12] = target: Fuc(a1-2)Gal(b1-4)[Fuc(a1-3)]GlcNAc(b1-3)Gal(b1-4)[Fuc(a1-3)]GlcNAc(b1-3)Gal(b1-4)[Fuc(a1-3)]GlcNAc
# Method in brief: as §1
# [13] = target: Fuc(a1-2)Gal(b1-4)[Fuc(a1-3)]GlcNAc(b1-3)GalNAc
# Method in brief: as §1
# [14] = target: Fuc(a1-2)Gal(b1-4)[Fuc(a1-3)]GlcNAc(b1-3)[Neu5Ac(a2-6)Gal(b1-4)GlcNAc(b1-6)]Gal(b1-4)Glc
# Method in brief: as §1
# [15] = target: Fuc(a1-2)Gal3S(b1-4)GlcNAc
# Method in brief: as §1
# [16] = target: Fuc(a1-2)Gal6S(b1-3)GlcNAc
# Method in brief: as §1
# [17] = target: Fuc(a1-2)Gal6S(b1-3)GlcNAc6S
# Method in brief: as §1
# Fuc(a1-2)Gal6S(b1-4)Glc = target: Fuc(a1-2)Gal6S(b1-4)Glc
# Method in brief: as §1
# [18] = target: Fuc(a1-2)Gal6S(b1-4)Glc6S
# Method in brief: as §1
# Fuc(a1-2)[Gal(a1-3)]Gal = target: Fuc(a1-2)[Gal(a1-3)]Gal
# Method in brief: as §1
# [19] = target: Fuc(a1-2)[Gal(a1-3)]Gal(b1-3)GalNAc
# Method in brief: as §1
# [20] = target: Fuc(a1-2)[Gal(a1-3)]Gal(b1-3)GalNAc(b1-3)Gal(a1-4)Gal(b1-4)Glc
# Method in brief: as §1
# [21] = target: Fuc(a1-2)[Gal(a1-3)]Gal(b1-3)GlcNAc
# Method in brief: as §1
# [22] = target: Fuc(a1-2)[Gal(a1-3)]Gal(b1-3)GlcNAc(b1-2)Man(a1-3)[Fuc(a1-2)[Gal(a1-3)]Gal(b1-3)GlcNAc(b1-2)Man(a1-6)]Man(b1-4)GlcNAc(b1-4)GlcNAc
# Method in brief: as §1
# [23] = target: Fuc(a1-2)[Gal(a1-3)]Gal(b1-3)GlcNAc(b1-2)Man(a1-3)[Fuc(a1-2)[Gal(a1-3)]Gal(b1-3)GlcNAc(b1-2)Man(a1-6)]Man(b1-4)GlcNAc(b1-4)[Fuc(a1-6)]GlcNAc
# Method in brief: as §1
# [24] = target: Fuc(a1-2)[Gal(a1-3)]Gal(b1-3)GlcNAc(b1-3)GalNAc
# Method in brief: as §1
# [25] = target: Fuc(a1-2)[Gal(a1-3)]Gal(b1-3)GlcNAc(b1-6)GalNAc
# Method in brief: as §1
# [26] = target: Fuc(a1-2)[Gal(a1-3)]Gal(b1-4)Glc
# Method in brief: as §1
# [27] = target: Fuc(a1-2)[Gal(a1-3)]Gal(b1-4)GlcNAc
# Method in brief: as §1
# [28] = target: Fuc(a1-2)[Gal(a1-3)]Gal(b1-4)GlcNAc(b1-2)Man
# Method in brief: as §1
binder,measurement,setting,value
B1,glycan array binding signal (z-score),[1],0.478
same,glycan array binding signal (z-score),[2],-0.551
same,glycan array binding signal (z-score),[3],0.068
same,glycan array binding signal (z-score),[4],-0.658
same,glycan array binding signal (z-score),[5],-0.373
same,glycan array binding signal (z-score),[6],0.065
same,glycan array binding signal (z-score),[7],0.365
same,glycan array binding signal (z-score),[8],-0.241
same,glycan array binding signal (z-score),[9],0.299
same,glycan array binding signal (z-score),[10],0.365
same,glycan array binding signal (z-score),[11],0.458
same,glycan array binding signal (z-score),[12],0.313
same,glycan array binding signal (z-score),[13],0.035
same,glycan array binding signal (z-score),[14],-0.37
same,glycan array binding signal (z-score),[15],0.252
same,glycan array binding signal (z-score),[16],-0.076
same,glycan array binding signal (z-score),[17],0.061
same,glycan array binding signal (z-score),Fuc(a1-2)Gal6S(b1-4)Glc,-0.806
same,glycan array binding signal (z-score),[18],-0.53
same,glycan array binding signal (z-score),Fuc(a1-2)[Gal(a1-3)]Gal,1.1
same,glycan array binding signal (z-score),[19],-0.578
same,glycan array binding signal (z-score),[20],-0.757
same,glycan array binding signal (z-score),[21],-0.384
same,glycan array binding signal (z-score),[22],0.176
same,glycan array binding signal (z-score),[23],0.397
same,glycan array binding signal (z-score),[24],-0.932
same,glycan array binding signal (z-score),[25],-0.727
same,glycan array binding signal (z-score),[26],0.516
same,glycan array binding signal (z-score),[27],0.32
same,glycan array binding signal (z-score),[28],-0.779

# Another view of part of the listing above.
binder | measurement | setting | value
B1 | glycan array binding signal (z-score) | [1] | 0.478
same | glycan array binding signal (z-score) | [23] | 0.397
